Measured values from the supplement of paper PMC10849652.
The other results are listed elsewhere or left out.

The chains behind the UniProt entries cited, without tags or fusion partners. Where a name states a change or a piece, a line headed by the entry shows the natural chain unless it says otherwise.
UniProt O00422: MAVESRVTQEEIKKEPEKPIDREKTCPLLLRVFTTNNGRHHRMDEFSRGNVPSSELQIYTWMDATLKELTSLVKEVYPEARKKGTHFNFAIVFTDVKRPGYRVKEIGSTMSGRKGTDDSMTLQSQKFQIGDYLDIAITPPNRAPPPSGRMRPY
UniProt Q96GA7: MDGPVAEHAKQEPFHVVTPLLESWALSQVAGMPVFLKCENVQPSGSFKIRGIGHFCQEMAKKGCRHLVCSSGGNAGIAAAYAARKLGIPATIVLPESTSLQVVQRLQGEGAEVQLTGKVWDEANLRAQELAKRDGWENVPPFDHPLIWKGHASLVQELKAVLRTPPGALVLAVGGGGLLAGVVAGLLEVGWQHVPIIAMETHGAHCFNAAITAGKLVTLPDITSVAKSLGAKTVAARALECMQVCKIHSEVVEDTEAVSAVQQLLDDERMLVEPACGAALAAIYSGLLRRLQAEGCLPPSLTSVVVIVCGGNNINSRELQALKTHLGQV
UniProt Q15424: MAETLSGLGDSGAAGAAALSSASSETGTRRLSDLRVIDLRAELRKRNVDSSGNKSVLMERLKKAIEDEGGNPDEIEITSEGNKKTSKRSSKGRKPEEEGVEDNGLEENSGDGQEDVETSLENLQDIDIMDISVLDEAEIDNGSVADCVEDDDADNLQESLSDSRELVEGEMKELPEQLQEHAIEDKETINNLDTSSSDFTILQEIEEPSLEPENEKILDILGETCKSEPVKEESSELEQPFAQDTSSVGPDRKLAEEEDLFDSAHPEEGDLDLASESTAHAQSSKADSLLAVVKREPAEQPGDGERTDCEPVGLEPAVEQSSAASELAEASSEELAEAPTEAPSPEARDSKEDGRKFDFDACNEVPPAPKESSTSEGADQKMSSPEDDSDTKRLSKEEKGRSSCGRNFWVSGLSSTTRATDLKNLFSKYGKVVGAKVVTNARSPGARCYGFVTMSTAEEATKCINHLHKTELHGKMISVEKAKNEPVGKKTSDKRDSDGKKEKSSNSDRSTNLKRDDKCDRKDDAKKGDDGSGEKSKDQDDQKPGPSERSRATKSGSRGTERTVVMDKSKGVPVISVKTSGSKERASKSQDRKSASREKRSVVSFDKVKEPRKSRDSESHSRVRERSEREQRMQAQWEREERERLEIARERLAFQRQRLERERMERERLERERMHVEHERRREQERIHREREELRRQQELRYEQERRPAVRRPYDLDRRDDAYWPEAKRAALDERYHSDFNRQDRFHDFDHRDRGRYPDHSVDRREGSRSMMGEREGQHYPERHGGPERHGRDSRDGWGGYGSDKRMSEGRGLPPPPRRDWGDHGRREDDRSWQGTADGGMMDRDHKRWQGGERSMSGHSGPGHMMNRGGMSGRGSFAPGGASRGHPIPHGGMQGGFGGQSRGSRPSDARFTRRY
UniProt Q12770: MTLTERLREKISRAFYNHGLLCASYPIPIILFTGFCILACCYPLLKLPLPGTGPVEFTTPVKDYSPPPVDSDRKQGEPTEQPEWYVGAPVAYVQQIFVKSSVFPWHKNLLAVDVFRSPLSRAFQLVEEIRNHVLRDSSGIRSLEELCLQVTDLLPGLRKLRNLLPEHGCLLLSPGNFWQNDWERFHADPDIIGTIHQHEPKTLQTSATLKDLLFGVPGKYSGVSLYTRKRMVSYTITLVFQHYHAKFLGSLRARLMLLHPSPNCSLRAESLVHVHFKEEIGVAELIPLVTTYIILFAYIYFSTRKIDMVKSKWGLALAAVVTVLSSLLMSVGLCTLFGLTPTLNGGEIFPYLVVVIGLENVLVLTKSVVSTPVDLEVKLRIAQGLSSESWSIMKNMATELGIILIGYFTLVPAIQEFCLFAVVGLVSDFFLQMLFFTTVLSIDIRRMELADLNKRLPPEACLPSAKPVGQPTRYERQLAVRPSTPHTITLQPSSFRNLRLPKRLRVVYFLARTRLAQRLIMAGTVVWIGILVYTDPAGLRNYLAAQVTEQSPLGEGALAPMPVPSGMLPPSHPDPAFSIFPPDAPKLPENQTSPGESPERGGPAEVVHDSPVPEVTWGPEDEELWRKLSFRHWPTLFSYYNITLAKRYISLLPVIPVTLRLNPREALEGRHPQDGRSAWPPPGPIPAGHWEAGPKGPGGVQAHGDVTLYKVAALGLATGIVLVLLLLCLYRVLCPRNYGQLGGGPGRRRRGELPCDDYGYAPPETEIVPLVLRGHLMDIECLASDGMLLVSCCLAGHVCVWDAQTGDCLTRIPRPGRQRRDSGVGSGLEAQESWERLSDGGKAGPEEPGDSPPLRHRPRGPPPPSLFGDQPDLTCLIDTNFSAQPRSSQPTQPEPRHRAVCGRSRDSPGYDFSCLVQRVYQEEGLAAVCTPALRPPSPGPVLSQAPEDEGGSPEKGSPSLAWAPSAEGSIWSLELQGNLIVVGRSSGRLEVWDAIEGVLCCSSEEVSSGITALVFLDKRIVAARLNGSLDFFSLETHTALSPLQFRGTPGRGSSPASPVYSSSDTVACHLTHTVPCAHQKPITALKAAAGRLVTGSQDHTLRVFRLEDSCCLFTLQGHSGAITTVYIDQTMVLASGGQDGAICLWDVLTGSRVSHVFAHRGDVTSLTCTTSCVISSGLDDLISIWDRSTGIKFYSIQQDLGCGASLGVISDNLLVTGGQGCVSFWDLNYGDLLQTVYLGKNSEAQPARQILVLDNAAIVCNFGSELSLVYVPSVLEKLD
UniProt Q8WU76: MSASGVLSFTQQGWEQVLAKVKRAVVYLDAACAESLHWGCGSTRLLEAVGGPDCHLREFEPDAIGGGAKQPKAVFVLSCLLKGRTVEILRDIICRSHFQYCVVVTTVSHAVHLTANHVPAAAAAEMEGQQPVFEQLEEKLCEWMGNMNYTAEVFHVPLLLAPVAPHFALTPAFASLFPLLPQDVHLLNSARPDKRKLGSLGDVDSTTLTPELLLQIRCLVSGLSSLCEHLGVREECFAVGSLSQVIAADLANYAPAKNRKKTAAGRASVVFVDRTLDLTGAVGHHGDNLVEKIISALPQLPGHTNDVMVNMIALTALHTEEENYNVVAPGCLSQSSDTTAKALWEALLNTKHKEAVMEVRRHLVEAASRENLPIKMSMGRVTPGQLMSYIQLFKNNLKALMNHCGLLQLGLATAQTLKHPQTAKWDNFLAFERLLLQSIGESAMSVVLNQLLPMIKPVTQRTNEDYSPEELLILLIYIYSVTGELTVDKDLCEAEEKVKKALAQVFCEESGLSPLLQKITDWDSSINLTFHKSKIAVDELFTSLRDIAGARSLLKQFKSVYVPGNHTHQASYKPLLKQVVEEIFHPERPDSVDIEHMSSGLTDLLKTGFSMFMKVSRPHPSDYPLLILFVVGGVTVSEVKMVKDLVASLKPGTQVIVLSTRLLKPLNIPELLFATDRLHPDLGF
UniProt Q9Y6U3: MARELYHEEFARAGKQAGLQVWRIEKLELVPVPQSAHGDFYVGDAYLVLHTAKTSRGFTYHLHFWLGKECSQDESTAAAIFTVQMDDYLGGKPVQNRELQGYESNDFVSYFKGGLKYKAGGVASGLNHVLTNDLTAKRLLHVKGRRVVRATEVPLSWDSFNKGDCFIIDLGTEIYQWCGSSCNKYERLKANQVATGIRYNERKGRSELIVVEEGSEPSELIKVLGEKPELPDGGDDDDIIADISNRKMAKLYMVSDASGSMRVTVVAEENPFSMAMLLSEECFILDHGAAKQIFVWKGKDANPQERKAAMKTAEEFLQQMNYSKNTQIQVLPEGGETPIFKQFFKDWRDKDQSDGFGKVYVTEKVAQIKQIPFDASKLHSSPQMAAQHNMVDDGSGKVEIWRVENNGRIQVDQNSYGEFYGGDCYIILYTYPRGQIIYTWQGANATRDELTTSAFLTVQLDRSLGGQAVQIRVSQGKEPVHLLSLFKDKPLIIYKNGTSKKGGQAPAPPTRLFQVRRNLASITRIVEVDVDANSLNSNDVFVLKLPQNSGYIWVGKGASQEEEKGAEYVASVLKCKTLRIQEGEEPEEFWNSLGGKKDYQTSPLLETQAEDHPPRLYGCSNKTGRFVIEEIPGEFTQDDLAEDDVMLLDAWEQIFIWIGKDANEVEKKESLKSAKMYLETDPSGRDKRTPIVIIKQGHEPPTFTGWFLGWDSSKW
UniProt Q6IQ49: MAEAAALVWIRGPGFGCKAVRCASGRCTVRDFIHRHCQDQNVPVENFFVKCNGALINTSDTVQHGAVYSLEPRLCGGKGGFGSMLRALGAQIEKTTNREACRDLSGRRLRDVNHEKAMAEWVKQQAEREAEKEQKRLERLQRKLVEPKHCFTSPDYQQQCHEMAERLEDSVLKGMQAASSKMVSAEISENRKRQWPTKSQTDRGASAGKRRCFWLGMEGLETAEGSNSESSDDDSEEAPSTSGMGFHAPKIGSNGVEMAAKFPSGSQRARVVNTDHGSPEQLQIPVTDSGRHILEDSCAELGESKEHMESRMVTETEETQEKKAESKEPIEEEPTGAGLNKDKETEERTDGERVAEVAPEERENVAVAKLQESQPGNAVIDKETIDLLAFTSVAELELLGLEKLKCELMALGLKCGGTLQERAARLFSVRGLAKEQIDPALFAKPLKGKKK
UniProt Q9GZR1: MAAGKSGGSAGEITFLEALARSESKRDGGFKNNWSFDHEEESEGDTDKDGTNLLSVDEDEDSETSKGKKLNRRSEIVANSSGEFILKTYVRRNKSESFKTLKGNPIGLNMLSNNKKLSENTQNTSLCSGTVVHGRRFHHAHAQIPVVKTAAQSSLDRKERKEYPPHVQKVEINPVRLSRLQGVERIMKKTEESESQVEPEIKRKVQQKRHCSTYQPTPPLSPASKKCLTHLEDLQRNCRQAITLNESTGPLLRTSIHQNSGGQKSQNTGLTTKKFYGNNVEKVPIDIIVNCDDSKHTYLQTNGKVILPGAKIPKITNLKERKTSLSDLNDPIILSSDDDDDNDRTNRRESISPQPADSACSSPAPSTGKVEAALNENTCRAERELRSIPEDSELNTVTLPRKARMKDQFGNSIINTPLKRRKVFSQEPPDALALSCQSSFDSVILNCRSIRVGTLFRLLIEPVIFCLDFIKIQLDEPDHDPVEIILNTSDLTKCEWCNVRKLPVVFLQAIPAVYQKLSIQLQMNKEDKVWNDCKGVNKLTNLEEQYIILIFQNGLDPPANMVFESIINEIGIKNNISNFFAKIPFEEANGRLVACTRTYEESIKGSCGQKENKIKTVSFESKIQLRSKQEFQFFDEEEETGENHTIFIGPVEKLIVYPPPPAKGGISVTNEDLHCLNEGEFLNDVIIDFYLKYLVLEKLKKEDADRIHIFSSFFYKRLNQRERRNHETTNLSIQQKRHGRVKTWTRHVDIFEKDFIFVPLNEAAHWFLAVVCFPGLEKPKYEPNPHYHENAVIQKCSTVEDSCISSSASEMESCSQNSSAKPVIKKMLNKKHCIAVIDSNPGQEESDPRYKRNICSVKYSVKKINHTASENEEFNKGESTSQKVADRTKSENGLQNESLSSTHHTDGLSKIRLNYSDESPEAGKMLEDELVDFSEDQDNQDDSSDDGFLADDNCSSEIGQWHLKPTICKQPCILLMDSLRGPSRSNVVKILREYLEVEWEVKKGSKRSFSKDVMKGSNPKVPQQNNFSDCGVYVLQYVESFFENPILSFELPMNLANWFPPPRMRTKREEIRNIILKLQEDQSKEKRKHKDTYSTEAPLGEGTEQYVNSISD
UniProt Q15437: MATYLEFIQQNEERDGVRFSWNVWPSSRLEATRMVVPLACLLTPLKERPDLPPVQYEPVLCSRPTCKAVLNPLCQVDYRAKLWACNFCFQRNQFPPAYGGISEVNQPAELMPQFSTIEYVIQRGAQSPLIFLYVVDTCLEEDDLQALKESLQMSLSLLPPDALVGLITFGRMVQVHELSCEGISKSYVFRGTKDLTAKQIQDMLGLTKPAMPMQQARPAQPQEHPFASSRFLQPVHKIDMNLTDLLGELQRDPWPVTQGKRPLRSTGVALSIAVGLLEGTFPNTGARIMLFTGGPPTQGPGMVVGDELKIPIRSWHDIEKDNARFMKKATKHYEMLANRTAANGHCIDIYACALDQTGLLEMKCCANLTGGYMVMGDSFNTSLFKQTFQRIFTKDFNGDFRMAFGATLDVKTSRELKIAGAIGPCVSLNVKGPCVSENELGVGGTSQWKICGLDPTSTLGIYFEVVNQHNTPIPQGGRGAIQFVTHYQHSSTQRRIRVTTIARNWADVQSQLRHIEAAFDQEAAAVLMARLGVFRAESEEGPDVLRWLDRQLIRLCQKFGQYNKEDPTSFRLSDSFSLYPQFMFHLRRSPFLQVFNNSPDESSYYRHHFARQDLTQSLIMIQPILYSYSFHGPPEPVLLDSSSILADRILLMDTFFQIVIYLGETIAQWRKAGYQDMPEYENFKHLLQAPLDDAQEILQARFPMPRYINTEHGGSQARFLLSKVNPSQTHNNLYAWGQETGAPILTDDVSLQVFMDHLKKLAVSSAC

How the values were obtained:
Experiment in all cases: log2 fold change, soluble protein after heating vs DMSO (PISA); higher = thermal stabilisation; K562 lysate, 10 uM; active = over 0.2 and 3.5 SD of the protein, either way, in both replicates (recomputed)
alvocidib = compound: CN1CC[C@H](c2c(O)cc(O)c3c(=O)cc(-c4ccccc4Cl)oc23)[C@H](O)C1 [alvocidib]
How it was run: (§1)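 Dounce homogenisation of K562 pellets in PBS pH 7.4 with 1 mM MgCl2 produced a crude extract, used at 1 mg/mL protein. Exposure to 10 μM compound lasted 30 min, and aliquots were then heated for 3 min across 48°C-58°C, pooled and brought to 0.5% NP-40 at 4°C. The supernatant after 21,000xg for 90 min was quantified by TMTpro 16plex LC-MS/MS with channel sums equalised. Duplicate values are given as log-two fold change in thermal stability relative to solvent controls.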

Tubastatin A = compound: CN1CCc2c(c3ccccc3n2Cc2ccc(C(=O)NO)cc2)C1 [Tubastatin A]
How it was run: as §1

[1] = compound: CNC(=O)C1=CC=CC=C1NC2=NC(=NC=C2Cl)NC3=C(C=C(C=C3)N4CCOCC4)OC
How it was run: as §1

defactinib = compound: CNC(=O)c1ccc(Nc2ncc(C(F)(F)F)c(NCc3nccnc3N(C)S(C)(=O)=O)n2)cc1 [defactinib]
How it was run: as §1

[2] = compound: CNc1nc(-c2ccc3c(N)n[nH]c3c2)cc(N2C[C@@H](C(=O)NC3CCCCC3)CC[C@H]2C)n1
How it was run: as §1

encorafenib = compound: COC(=O)N[C@@H](C)CNc1nccc(-c2cn(C(C)C)nc2-c2cc(Cl)cc(NS(C)(=O)=O)c2F)n1 [encorafenib]
How it was run: as §1

[3] = compound: COC(=O)[C@H](CCSC)NC(=O)C1=C(C=C(C=C1)NC[C@H](CS)N)C2=CC=CC=C2
How it was run: as §1

alisertib = compound: COc1cc(Nc2ncc3c(n2)-c2ccc(Cl)cc2C(c2c(F)cccc2OC)=NC3)ccc1C(=O)O [alisertib]
How it was run: as §1

[4] = compound: COc1cc2nc(-c3cc(F)ccc3O)nc(N[C@@H]3CNC[C@H]3C(C)(C)O)c2cc1OC
How it was run: as §1

gefitinib = compound: COc1cc2ncnc(Nc3ccc(F)c(Cl)c3)c2cc1OCCCN1CCOCC1 [gefitinib]
How it was run: as §1

Measured: log2 fold change

SCP2 (UniProt P22307)
inactive: alvocidib 0.035 | Tubastatin A 0.039 | [1] 0.002 | defactinib 0.019 | [2] 0.033 | encorafenib 0.001 | [3] -0.083 | alisertib -0.006 | [4] 0.008 | gefitinib -0.004

SBF1 isoform 4 (UniProt O95248)
inactive: alvocidib 0.005 | Tubastatin A 0.074 | [1] -0.054 | defactinib 0.022 | [2] -0.099 | encorafenib -0.004 | [3] -0.009 | alisertib 0.238 | [4] 0.008 | gefitinib 0.062

SEC24D isoform 2 (UniProt O94855)
inactive: alvocidib -0.012 | Tubastatin A -0.018 | [1] 0.002 | defactinib 0.012 | [2] -0.008 | encorafenib 0.029 | [3] -0.163 | alisertib 0.005 | [4] 0.006 | gefitinib 0.006

SCFD1 (UniProt Q8WVM8)
inactive: alvocidib 0.022 | Tubastatin A -0.037 | [1] 0.027 | defactinib 0.019 | [2] -0.009 | encorafenib 0.014 | [3] 0.078 | alisertib 0.016 | [4] 0.005 | gefitinib -0.034

SAP18 isoform 2 (UniProt O00422)
inactive: alvocidib 0.016 | Tubastatin A 0.064 | [1] -0.003 | defactinib -0.002 | [2] 0.089 | encorafenib 0.033 | [3] 0.06 | alisertib 0.032 | [4] -0.016 | gefitinib 0.032

SEMA4B (UniProt Q9NPR2)
inactive: alvocidib -0.055 | Tubastatin A 0.138 | [1] 0.004 | defactinib -0.095 | [2] -0.061 | encorafenib -0.248 | [3] 0.113 | alisertib -0.105 | [4] 0.09 | gefitinib 0.051

SDSL (UniProt Q96GA7)
inactive: alvocidib -0.012 | Tubastatin A 0.01 | [1] -0.005 | defactinib 0.097 | [2] -0.004 | encorafenib 0.026 | [3] 0.02 | alisertib -0.02 | [4] 0.021 | gefitinib 0.056

SAFB isoform 3 (UniProt Q15424)
inactive: alvocidib -0.004 | Tubastatin A 0.024 | [1] -0.016 | defactinib -0.043 | [2] 0.075 | encorafenib 0.021 | [3] -0.034 | alisertib 0.062 | [4] -0.028 | gefitinib 0.263

SCAP (UniProt Q12770)
inactive: alvocidib -0.062 | Tubastatin A -0.094 | [1] -0.09 | defactinib -0.092 | [2] -0.113 | encorafenib -0.024 | [3] -0.113 | alisertib -0.047 | [4] 0.013 | gefitinib -0.035

SCFD2 (UniProt Q8WU76)
inactive: alvocidib -0.067 | Tubastatin A 0.016 | [1] 0.015 | defactinib 0.005 | [2] -0.017 | encorafenib 0.075 | [3] 0.073 | alisertib -0.03 | [4] 0.022 | gefitinib -0.062

SECISBP2L (UniProt Q93073)
inactive: alvocidib -0.103 | Tubastatin A -0.105 | [1] 0.058 | defactinib -0.004 | [2] -0.193 | encorafenib -0.065 | [3] 0.1 | alisertib -0.069 | [4] -0.088 | gefitinib -0.043

SCAMP3 (UniProt O14828)
inactive: alvocidib -0.021 | Tubastatin A 0.034 | [1] 0.027 | defactinib -0.024 | [2] -0.032 | encorafenib 0.011 | [3] -0.042 | alisertib -0.026 | [4] -0.017 | gefitinib 0.04

SCARB2 (UniProt Q14108)
inactive: alvocidib 0.046 | Tubastatin A 0.018 | [1] 0.016 | defactinib -0.002 | [2] -0.005 | encorafenib -0.003 | [3] -0.082 | alisertib -0.028 | [4] 0.026 | gefitinib -0.01

SCIN (UniProt Q9Y6U3)
inactive: alvocidib 0.012 | Tubastatin A 0.032 | [1] -0.001 | defactinib -0.003 | [2] 0.022 | encorafenib -0.01 | [3] 0.054 | alisertib -0.022 | [4] 0.007 | gefitinib -0.002

SDHB (UniProt P21912)
inactive: alvocidib -0.031 | Tubastatin A 0.004 | [1] 0.006 | defactinib 0.028 | [2] 0.02 | encorafenib 0.009 | [3] -0.009 | alisertib 0.014 | [4] -0.005 | gefitinib -0.016

SEL1L (UniProt Q9UBV2)
inactive: alvocidib -0.007 | Tubastatin A 0.025 | [1] -0.021 | defactinib 0.012 | [2] 0.013 | encorafenib 0.025 | [3] -0.023 | alisertib 0.006 | [4] -0.013 | gefitinib 0.039

SDCCAG8 (UniProt Q86SQ7)
inactive: alvocidib 0.019 | Tubastatin A -0.012 | [1] -0.013 | defactinib 0.03 | [2] 0.059 | encorafenib 0.069 | [3] -0.067 | alisertib -0.022 | [4] 0.019 | gefitinib 0.027

SEPTIN6 (UniProt Q14141)
inactive: alvocidib 0.014 | Tubastatin A 0.073 | [1] -0.007 | defactinib -0.025 | [2] -0.027 | encorafenib -0.002 | [3] -0.029 | alisertib -0.034 | [4] -0.015 | gefitinib -0.096

SDE2 (UniProt Q6IQ49)
inactive: alvocidib -0.02 | Tubastatin A -0.025 | [1] 0.096 | defactinib 0.009 | [2] 0.091 | encorafenib 0.022 | [3] -0.04 | alisertib -0.006 | [4] -0.006 | gefitinib 0.004

SAFB2 (UniProt Q14151)
inactive: alvocidib 0.017 | Tubastatin A 0.004 | [1] 0.059 | defactinib -0.03 | [2] 0.014 | encorafenib 0.017 | [3] -0.058 | alisertib -0.015 | [4] -0.013 | gefitinib 0.005

Pulled one by one from the entries so far (two):
SCP2 (UniProt P22307)
inactive: alvocidib 0.035 | Tubastatin A 0.039 | [1] 0.002 | defactinib 0.019 | [2] 0.033 | encorafenib 0.001 | [3] -0.083 | alisertib -0.006 | [4] 0.008 | gefitinib -0.004

SBF1 isoform 4 (UniProt O95248)
inactive: alvocidib 0.005 | Tubastatin A 0.074 | [1] -0.054 | defactinib 0.022 | [2] -0.099 | encorafenib -0.004 | [3] -0.009 | alisertib 0.238 | [4] 0.008 | gefitinib 0.062

(listing goes on)

SCARB1 isoform 2 (UniProt Q8WTV0)
inactive: alvocidib -0.024 | Tubastatin A 0.035 | [1] -0.016 | defactinib 0.036 | [2] 0.005 | encorafenib 0.038 | [3] -0.03 | alisertib 0.016 | [4] 0.012 | gefitinib 0.026

SAR1B (UniProt Q9Y6B6)
inactive: alvocidib 0.032 | Tubastatin A 0.176 | [1] 0.199 | defactinib 0.05 | [2] 0.147 | encorafenib 0.203 | [3] 0.052 | alisertib 0.128 | [4] 0.145 | gefitinib 0.015

SDHB, A0A087WWT1
inactive: alvocidib 0.239 | Tubastatin A 0.03 | [1] -0.296 | defactinib 0.019 | [2] -0.051 | encorafenib -0.027 | [3] -0.094 | alisertib -0.052 | [4] -0.06 | gefitinib -0.125

SEC31A (UniProt D6REX3)
inactive: alvocidib 0.015 | Tubastatin A 0.046 | [1] -0.021 | defactinib 0.004 | [2] -0.048 | encorafenib -0.007 | [3] -0.023 | alisertib 0.01 | [4] -0.004 | gefitinib 0.014

SARG (UniProt Q9BW04)
inactive: alvocidib -0.035 | Tubastatin A 0.014 | [1] 0.053 | defactinib 0.005 | [2] 0.079 | encorafenib 0.015 | [3] -0.072 | alisertib -0.015 | [4] 0.028 | gefitinib 0.053

SENP6 (UniProt Q9GZR1)
inactive: alvocidib -0.069 | Tubastatin A -0.003 | [1] 0 | defactinib -0.154 | [2] -0.006 | encorafenib -0.014 | [3] 0.013 | alisertib -0.093 | [4] -0.059 | gefitinib 0.087

SEPTIN8 (UniProt Q92599)
inactive: alvocidib 0.006 | Tubastatin A 0.014 | [1] -0.004 | defactinib 0.006 | [2] -0.009 | encorafenib -0.026 | [3] 0.018 | alisertib -0.006 | [4] 0.003 | gefitinib 0.001

SCAF11 (UniProt Q99590)
inactive: alvocidib -0.062 | Tubastatin A 0.032 | [1] 0.04 | defactinib 0.119 | [2] -0.008 | encorafenib 0.026 | [3] -0.009 | alisertib -0.036 | [4] -0.008 | gefitinib 0.062

SEC23B (UniProt Q15437)
inactive: alvocidib 0.013 | Tubastatin A 0.004 | [1] 0.012 | defactinib -0.009 | [2] -0.01 | encorafenib -0.023 | [3] 0.007 | alisertib 0.01 | [4] 0.003 | gefitinib -0.03

SDAD1 (UniProt Q9NVU7)
inactive: alvocidib 0.042 | Tubastatin A -0.004 | [1] 0.003 | defactinib 0.005 | [2] 0.048 | encorafenib 0.045 | [3] -0.031 | alisertib 0.007 | [4] -0.016 | gefitinib -0.018
